Data reported in PubChem BioAssay AID272 (DTP/NCI, 2004).
The list does not hold the whole screen: it gathers tests that were run many times, whatever their T/C, doses with no T/C, and many T/C values between a quarter and a half above the control. Further doses and runs are listed elsewhere. T/C: endpoint of the treated group in % of that of the vehicle group. Some T/C values carry the count of animals alive at the toxicity check (mostly the fifth day); without a count, all were alive then. Schedule codes are those of the source, read here as Q, the interval in days (D) or hours (H), X, the number of doses. Some entries give survivors of the animals treated and no T/C: the source files T/C as zero there, which appears to mark a toxic dose or a test without result, not a measured value. Some doses without a T/C left all or most animals alive at the check, yet need not have been tolerated: survival well below the control is almost never listed, so the zero probably covers shortened survival too. Survivors were counted at the toxicity check, usually on the fifth day, unless a day is given; later deaths do not show. Some entries hold several experiments; their values stand side by side, smallest first. For survival time, this PubChem deposit counts one and a half times the control or more as active, and values a quarter to a half above the control carry no call in these data; other NCI protocols may use other cut-offs. Starred links: 1 amine or outer side, 2 acyl side, 3 side chain; linkers in the order of their positions; H or OH if unused. Positions of bridges follow the written chain, without caps; N, C: chain ends. Non-standard residues stand in square brackets, D forms with d. Residues, ends and D or L forms follow the SMILES beside them. Chains are numbered I, II in the order given. Actinocin(9to1) = Cc1c2oc3c(C)ccc(C(=O)[*:1])c3nc-2c(C(=O)[*:2])c(N)c1=O; aThr = C[C@H](O)[C@H](N)C(=O)O; NMeV = CN[C@H](C(=O)O)C(C)C; Sar = CNCC(=O)O

Test system: Lewis lung carcinoma i.m., BDF1 mice, T/C %
Assay: NCI In Vivo Anticancer Drug Screen. Data for tumor model Lewis Lung Carcinoma (intramuscular) in B6D2F1 (BDF1) mice
How it was run: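 Tumour-bearing mice were dosed with compound, and either their survival or their tumour size was measured. Results were expressed relative to vehicle-treated controls as T/C.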

[1] = T/C endpoint: median survival time, dose: 0.1 mg/kg/injection, schedule: Q01DX011 (ip), vehicle: water, higher T/C = longer survival
[2] = T/C endpoint: median survival time, dose: 6.25 mg/kg/injection, schedule: Q01DX011 (ip), vehicle: other, higher T/C = longer survival

O=c1[nH]c(=O)n(C2CC(O)C(CO)O2)cc1C(F)(F)F (stereo not given)
survivor count (T/C endpoint: median survival time, dose: 5.0 mg/kg/injection, schedule: Q01DX009 (ip), vehicle: saline, higher T/C = longer survival): 9 of 10 | survivor count (T/C endpoint: median survival time, dose: 20.0 mg/kg/injection, schedule: Q01DX011 (ip), vehicle: saline + alcohol, higher T/C = longer survival): 9 of 10 | survivor count (T/C endpoint: median survival time, dose: 20.0 mg/kg/injection, schedule: Q01DX012 (ip), vehicle: saline + alcohol, higher T/C = longer survival): 4 of 10 | survivor count (T/C endpoint: median survival time, dose: 40.0 mg/kg/injection, schedule: Q01DX009 (ip), vehicle: saline, higher T/C = longer survival): 9 of 10 | survivor count (T/C endpoint: median survival time, dose: 40.0 mg/kg/injection, schedule: Q01DX011 (ip), vehicle: saline + alcohol, higher T/C = longer survival): 10 of 10 | survivor count (T/C endpoint: median survival time, dose: 40.0 mg/kg/injection, schedule: Q01DX012 (ip), vehicle: saline + alcohol, higher T/C = longer survival): 10 of 10 | survivor count (T/C endpoint: median survival time, dose: 80.0 mg/kg/injection, schedule: Q01DX009 (ip), vehicle: saline, higher T/C = longer survival): 10 of 10 | survivor count (T/C endpoint: median survival time, dose: 80.0 mg/kg/injection, schedule: Q01DX011 (ip), vehicle: saline + alcohol, higher T/C = longer survival): 8 of 10 | survivor count (T/C endpoint: median survival time, dose: 80.0 mg/kg/injection, schedule: Q01DX012 (ip), vehicle: saline + alcohol, higher T/C = longer survival): 1 of 10 | survivor count (T/C endpoint: median survival time, dose: 160.0 mg/kg/injection, schedule: Q01DX009 (ip), vehicle: saline, higher T/C = longer survival): 10 of 10 | survivor count (T/C endpoint: median survival time, dose: 160.0 mg/kg/injection, schedule: Q01DX011 (ip), vehicle: saline + alcohol, higher T/C = longer survival): 0 of 10 | survivor count (T/C endpoint: median survival time, dose: 160.0 mg/kg/injection, schedule: Q01DX012 (ip), vehicle: saline + alcohol, higher T/C = longer survival): 5 of 10 | survivor count (T/C endpoint: median survival time, dose: 320.0 mg/kg/injection, schedule: Q01DX009 (ip), vehicle: saline, higher T/C = longer survival): 10 of 10 | survivor count (T/C endpoint: median survival time, dose: 320.0 mg/kg/injection, schedule: Q01DX011 (ip), vehicle: saline + alcohol, higher T/C = longer survival): 0 of 10 | survivor count (T/C endpoint: median survival time, dose: 320.0 mg/kg/injection, schedule: Q01DX012 (ip), vehicle: saline + alcohol, higher T/C = longer survival): 2 of 10

COC(=O)CC(OC)c1nc(C(=O)OC)c(C)c(=O)[nH]1 (stereo not given)
T/C (T/C endpoint: median survival time, dose: 4.0 mg/kg/injection, schedule: Q01DX009 (ip), vehicle: Klucel (hydroxypropylcellulose) (HPC), higher T/C = longer survival): 138 % of control | T/C (T/C endpoint: median survival time, dose: 64.0 mg/kg/injection, schedule: Q01DX009 (ip), vehicle: Klucel (hydroxypropylcellulose) (HPC), higher T/C = longer survival): 149 % of control

C=C(C(=O)OC1CC2CCC(C1)N2C)c1ccccc1 (stereo not given)
survivor count (T/C endpoint: median survival time, dose: 15.0 mg/kg/injection, schedule: Q01DX011 (ip), vehicle: saline, higher T/C = longer survival): 1 of 8 | survivor count (T/C endpoint: median survival time, dose: 30.0 mg/kg/injection, schedule: Q01DX011 (ip), vehicle: saline, higher T/C = longer survival): 0 of 8 | survivor count (T/C endpoint: median survival time, dose: 60.0 mg/kg/injection, schedule: Q01DX011 (ip), vehicle: saline, higher T/C = longer survival): 0 of 8

CN(N=O)C(N)=O
survivor count (T/C endpoint: median survival time, dose: 25.0 mg/kg/injection, schedule: Q01DX015 (ip), vehicle: saline, higher T/C = longer survival): 8 of 8 | survivor count (T/C endpoint: median survival time, dose: 50.0 mg/kg/injection, schedule: Q01DX015 (ip), vehicle: saline, higher T/C = longer survival): 8 of 8 | survivor count (T/C endpoint: median survival time, dose: 50.0 mg/kg/injection, schedule: Q07DX003 (ip), vehicle: saline, higher T/C = longer survival): 8 of 8 | survivor count (T/C endpoint: median survival time, dose: 100.0 mg/kg/injection, schedule: Q07DX003 (ip), vehicle: saline, higher T/C = longer survival): 8 of 8 | survivor count (T/C endpoint: median survival time, dose: 200.0 mg/kg/injection, schedule: Q07DX003 (ip), vehicle: saline, higher T/C = longer survival): 8 of 8

C[C@]12C=CC(=O)C=C1CC[C@@H]1[C@@H]2C(=O)C[C@@]2(C)[C@H]1CC[C@]2(O)C(=O)CO
survivor count (T/C endpoint: mean tumor weight, dose: 65.0 mg/kg/injection, schedule: Q01DX009 (ip), vehicle: water, higher T/C = larger tumour): 5 of 8 | survivor count (T/C endpoint: mean tumor weight, dose: 108.0 mg/kg/injection, schedule: Q01DX009 (ip), vehicle: water, higher T/C = larger tumour): 2 of 8 | survivor count (T/C endpoint: mean tumor weight, dose: 180.0 mg/kg/injection, schedule: Q01DX009 (ip), vehicle: water, higher T/C = larger tumour): 1 of 8 | survivor count (T/C endpoint: median survival time, dose: 65.0 mg/kg/injection, schedule: Q01DX009 (ip), vehicle: water, higher T/C = longer survival): 5 of 8 | survivor count (T/C endpoint: median survival time, dose: 100.0 mg/kg/injection, schedule: Q01DX011 (ip), vehicle: carboxymethylcellulose (CMC), higher T/C = longer survival): 4 of 10 and 8 of 10 | survivor count (T/C endpoint: median survival time, dose: 108.0 mg/kg/injection, schedule: Q01DX009 (ip), vehicle: water, higher T/C = longer survival): 2 of 8 | survivor count (T/C endpoint: median survival time, dose: 144.0 mg/kg/injection, schedule: Q01DX007 (sc), vehicle: saline, higher T/C = longer survival): 5 of 8 | survivor count (T/C endpoint: median survival time, dose: 180.0 mg/kg/injection, schedule: Q01DX009 (ip), vehicle: water, higher T/C = longer survival): 1 of 8 | survivor count (T/C endpoint: median survival time, dose: 200.0 mg/kg/injection, schedule: Q01DX011 (ip), vehicle: carboxymethylcellulose (CMC), higher T/C = longer survival): 7 of 10 and 9 of 10 | survivor count (T/C endpoint: median survival time, dose: 200.0 mg/kg/injection, schedule: Q01DX011 (ip), vehicle: saline, higher T/C = longer survival): 6 of 8 | survivor count (T/C endpoint: median survival time, dose: 200.0 mg/kg/injection, schedule: Q01DX011 (ip), vehicle: water, higher T/C = longer survival): 4 of 8 | survivor count (T/C endpoint: median survival time, dose: 240.0 mg/kg/injection, schedule: Q01DX007 (sc), vehicle: saline, higher T/C = longer survival): 8 of 8 | survivor count (T/C endpoint: median survival time, dose: 400.0 mg/kg/injection, schedule: Q01DX011 (ip), vehicle: carboxymethylcellulose (CMC), higher T/C = longer survival): 0 of 10 and 7 of 10

Cc1c2oc3c(C)ccc(C(=O)N[C@@H]4C(=O)N[C@H](C(C)C)C(=O)N5CCC[C@H]5C(=O)N(C)CC(=O)N(C)[C@@H](C(C)C)C(=O)O[C@H]4C)c3nc-2c(C(=O)N[C@@H]2C(=O)N[C@H](C(C)C)C(=O)N3CCC[C@H]3C(=O)N(C)CC(=O)N(C)[C@@H](C(C)C)C(=O)O[C@H]2C)c(N)c1=O (I: [aThr][dV]P[Sar][NMeV] / II: [aThr][dV]P[Sar][NMeV]; ester I:1-I:C, II:1-II:C; linker I:N-II:N via Actinocin(9to1))
survivor count (T/C endpoint: median survival time, dose: 0.08 mg/kg/injection, schedule: Q01DX011 (ip), vehicle: water, higher T/C = longer survival): 4 of 8 | T/C [1]: 130 % of control | survivor count [1]: 6 of 10 | survivor count (T/C endpoint: median survival time, dose: 0.12 mg/kg/injection, schedule: Q01DX011 (ip), vehicle: saline, higher T/C = longer survival): 0 of 8 | survivor count (T/C endpoint: median survival time, dose: 0.2 mg/kg/injection, schedule: Q01DX011 (ip), vehicle: water, higher T/C = longer survival): 0 of 10 and 2 of 10 | survivor count (T/C endpoint: median survival time, dose: 0.25 mg/kg/injection, schedule: Q01DX011 (ip), vehicle: saline, higher T/C = longer survival): 0 of 8 | survivor count (T/C endpoint: median survival time, dose: 0.4 mg/kg/injection, schedule: Q01DX011 (ip), vehicle: water, higher T/C = longer survival): 0 of 10 | survivor count (T/C endpoint: median survival time, dose: 0.5 mg/kg/injection, schedule: Q01DX011 (ip), vehicle: saline, higher T/C = longer survival): 0 of 8 | survivor count (T/C endpoint: median survival time, dose: 1.0 mg/kg/injection, schedule: Q01DX011 (ip), vehicle: saline, higher T/C = longer survival): 0 of 8

COC(=O)Nc1nc2ccc(C3(c4ccc(F)cc4)OCCO3)cc2[nH]1
survivor count (T/C endpoint: median survival time, dose: 10.0 mg/kg/injection, schedule: Q01DX011 (oral), vehicle: other, higher T/C = longer survival): 8 of 8 | survivor count (T/C endpoint: median survival time, dose: 80.0 mg/kg/injection, schedule: Q01DX011 (oral), vehicle: other, higher T/C = longer survival): 8 of 8

Clc1ncnc2nc[nH]c12
T/C (T/C endpoint: mean tumor weight (est.), dose: 3.13 mg/kg/injection, schedule: Q01DX011 (ip), vehicle: other, evaluated on day 12, higher T/C = larger tumour): 127 % of control [7 of 8 alive] | survivor count (T/C endpoint: mean tumor weight, dose: 25.0 mg/kg/injection, schedule: Q01DX011 (ip), vehicle: other, higher T/C = larger tumour): 4 of 8 | survivor count (T/C endpoint: mean tumor weight, dose: 50.0 mg/kg/injection, schedule: Q01DX011 (ip), vehicle: other, higher T/C = larger tumour): 5 of 8 | survivor count (T/C endpoint: mean tumor weight, dose: 100.0 mg/kg/injection, schedule: Q01DX011 (ip), vehicle: other, higher T/C = larger tumour): 2 of 8 | survivor count (T/C endpoint: mean tumor weight, dose: 200.0 mg/kg/injection, schedule: Q01DX011 (ip), vehicle: other, higher T/C = larger tumour): 2 of 8 | T/C [2]: 143 % of control | survivor count [2]: 6 of 8 | survivor count (T/C endpoint: median survival time, dose: 25.0 mg/kg/injection, schedule: Q01DX011 (ip), vehicle: other, higher T/C = longer survival): 4 of 8 and 6 of 8 | survivor count (T/C endpoint: median survival time, dose: 50.0 mg/kg/injection, schedule: Q01DX011 (ip), vehicle: other, higher T/C = longer survival): 5 of 8 | survivor count (T/C endpoint: median survival time, dose: 100.0 mg/kg/injection, schedule: Q01DX011 (ip), vehicle: other, higher T/C = longer survival): 2 of 8 | survivor count (T/C endpoint: median survival time, dose: 200.0 mg/kg/injection, schedule: Q01DX011 (ip), vehicle: other, higher T/C = longer survival): 2 of 8 | survivor count (T/C endpoint: median survival time, dose: 400.0 mg/kg/injection, schedule: Q01DX011 (ip), vehicle: other, higher T/C = longer survival): 0 of 8

COc1cccc2c1C(=O)c1c(O)c3c(c(O)c1C2=O)C[C@@](O)(C(C)=O)C[C@@H]3OC1CC(N)C(O)C(C)O1 (stereo not given in full)
survivor count (T/C endpoint: median survival time, dose: 1.0 mg/kg/injection, schedule: Q01DX011 (ip), vehicle: water, higher T/C = longer survival): 5 of 8 | survivor count (T/C endpoint: median survival time, dose: 2.0 mg/kg/injection, schedule: Q01DX011 (ip), vehicle: water, higher T/C = longer survival): 2 of 6 and 6 of 8 | survivor count (T/C endpoint: median survival time, dose: 4.0 mg/kg/injection, schedule: Q01DX011 (ip), vehicle: water, higher T/C = longer survival): 0 of 6 and 0 of 8 | survivor count (T/C endpoint: median survival time, dose: 8.0 mg/kg/injection, schedule: Q01DX011 (ip), vehicle: water, higher T/C = longer survival): 0 of 8
